Patent US20240132546A1 (Molecular Partners, published 2024)
Results are given in words; binding and its absence hold for the method and conditions named. Some entries that bind do so weakly or less than the wild type.

Experiments:
[1] = molecular target: T1, biotinylated full-length HER2 (human, UniProt P04626 23-652, limits assumed, biotinylated (site not stated)); experiment: SPR, single trace, 500 nM analyte over biotinylated HER2 on the chip, double-referenced
T1 construct: Immobilised on the SPR chip; also called bio-HER2; Human Epidermal Growth Factor Receptor 2

[2] = molecular target: T1, biotinylated full-length HER2; experiment: SPR single trace, biotinylated HER2 on chip, analyte 500 nM

B1: parental DARPin11 (designed binder)
chain: DLGIKLLFAAAKGQDDEVRELLKAGADVNAKDFQGVTPLHIAAQSGHLEIVEVLLKAGADVNAKDVTGDTPLHLAAQHGHLEIVEVLLKAGADVNAQDERGWTPADLAADWGHEDIAEVLQKAA
binding [1]: binds | binding [2]: binds

B2: DARPin06-GSGSC-DTPA (designed binder)
chain: DLGKKLLEAARAGQDDEVRELLKAGADVNAKDEYGLTPLYLATAHGHLEIVEVLLKAGADVNAVDAIGFTPLHLAAFIGHLEIAEVLLKAGADVNAQDKFGKTPADIAAGAGNEDIAEVLQKAAGSGSC
modifications: maleimide-DTPA coupled to the C-terminal Cys of the GSGSC tag
notes: Parent; also called construct 6; DTPA coupled parental DARPin06
binding [2]: binds

B3: DARPin11-GSGSC-DTPA (designed binder)
chain: DLGIKLLFAAAKGQDDEVRELLKAGADVNAKDFQGVTPLHIAAQSGHLEIVEVLLKAGADVNAKDVTGDTPLHLAAQHGHLEIVEVLLKAGADVNAQDERGWTPADLAADWGHEDIAEVLQKAAGSGSC
modifications: maleimide-DTPA coupled to the C-terminal Cys of the GSGSC tag
notes: Parent; His-TEV tag cleaved off; possible N-terminal GS not included; also called construct 11; DTPA coupled parental DARPin11
binding [2]: binds

B4: parental DARPin06 (designed binder)
chain: DLGKKLLEAARAGQDDEVRELLKAGADVNAKDEYGLTPLYLATAHGHLEIVEVLLKAGADVNAVDAIGFTPLHLAAFIGHLEIAEVLLKAGADVNAQDKFGKTPADIAAGAGNEDIAEVLQKAA
binding [2]: binds
